These are yes or no findings as the source states them, for the method shown. For some of these results: In cells and extracts the contact can be indirect. Some binding calls cover weakened binding; strength is not graded here. Where a sequence is shown, tags or fusion partners need not be part of it.
T1: EVOLUTIONARILY CONSERVED C-TERMINAL REGION 8 (ECT8), yeast two-hybrid fusion (Arabidopsis thaliana) (UniProt Q9FPE7)
T1 sequence: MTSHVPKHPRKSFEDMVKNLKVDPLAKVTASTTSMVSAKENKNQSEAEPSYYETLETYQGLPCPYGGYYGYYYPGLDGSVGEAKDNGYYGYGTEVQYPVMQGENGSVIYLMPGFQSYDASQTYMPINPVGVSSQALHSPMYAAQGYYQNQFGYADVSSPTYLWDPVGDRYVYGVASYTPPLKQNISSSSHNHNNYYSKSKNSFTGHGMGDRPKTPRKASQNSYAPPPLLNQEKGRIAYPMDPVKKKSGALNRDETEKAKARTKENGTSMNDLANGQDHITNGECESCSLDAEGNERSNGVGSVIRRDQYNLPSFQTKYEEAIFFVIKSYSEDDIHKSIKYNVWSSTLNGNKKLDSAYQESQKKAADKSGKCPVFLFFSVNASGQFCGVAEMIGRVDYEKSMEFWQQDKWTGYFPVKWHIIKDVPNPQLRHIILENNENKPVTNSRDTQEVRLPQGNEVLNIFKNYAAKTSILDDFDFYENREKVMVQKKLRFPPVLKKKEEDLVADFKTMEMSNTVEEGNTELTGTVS

T2: ECT8-NYFP (Arabidopsis thaliana) (UniProt Q9FPE7)
T2 sequence: T1 sequence

B1: … 5 (DCP5), yeast two-hybrid fusion (protein, UniProt Q9C658 1-611)
chain: MAADNTGSKSSSAADSYVGSLISLTSKSEIRYEGILYNINTDESSIGLQNVRSFGTEGRKKDGPQVPPSDKVYEYILFRGTDIKDLQVKASPPVQPPASTINNDPAIIQSHYPSPMPTSGSLPSTASGSLPDISSHNGQPGQHGMGFQNAMPLYQPGGNLGSWGASPQPPMYWQGFYTPPPNGLPQLHQQSLIRPPHGLPMPNSLQQPLQYPNFNTPPPPTGSSSLQGSSLPEAPSSLFPFSTSSQMLAPSSLPFPGLPPVTLSSSLQSTLQSAPSPSLASEMAPPLLSNKAPITAPPTLPQDTNLLSFSLSTTRATEASTGLPLSNKPSVVTGPISPPQTTPLTSAPVAGVSSSISQDKPKPLLVTPGQLLQSGSSAVSLSPPSTNADKDVEVVQVSSSAGLEQSVPVTSEAQPPILPLPSSARPTQKPNGHSFPNHNGYRGRGRGRGRGAGRSHQVMKFTEDFDFTAMNEKFNKDEVWGHLGKSTTLDGDEDDDSPTVDEAELPKIEAKPVYNKDDFFDSLSSNTIDRESQNSRPRFSEQRKLDTETFGEFSRFRGGRGGRGGYGRNNGYSRGGYGGRGYGGYGGRGGGGGGYGYGGRGQGRGVSNRTT
B2: VARICOSE (VCS), yeast two-hybrid fusion (protein, UniProt Q9LTT8 1-1344)
chain: MASSPGNTNPHNTPPFDLGILFKPSSNPYPPPAASYPPPTGPFLHNQYDQQHYAPPGISAQPSPVTQQQQDVSSSSAATNLHPQRTLSYPTPPLNLQSPRSNHNPGTHILALLNNTNNGAPVANQEPSHQLPVVNHNEIARSFPGGSGPIRVPSCKLPKGRRLIGEHAVYDVDVRLQGEIQPQLEVTPITKYGSDPQLVVGRQIAVNKVYICYGLKGGNIRVLNINTALRSLFRGHSQRVTDMAFFAEDVDMLASVSLDGKVFVWKISEGSEGEDQPQITGKIVLALQILGEEDTKHPRVCWHCHKQEILVVSIGKHVLRIDTTKVGRGEVFSAEAPLQCPLDKLIDGVQIVGKHDGEVTDLSMCQWMTTRLVSSSVDGTIKIWQDRKAQPLVVLRPHDGHPVSSATFVTSPERPDHIILITGGPLNREMKIWVSAGEEGWLLPADAESWRCTQTLDLKSSTEPRAEEAFFNQVIALSEAGLLLLANAKRNALYAVHLDYGSSPVGTRMDYLSEFTVTMPILSFIGTNDPPEEPIVKVYCVQTLAIQQYTLDLCLCLPPPIENMGLEKSDSSVSREANLVEGMSEPSGLKPTDLPSVDSVPKPSIIVNRSESANKLSFPSAEATSQAIVPPNGEPKTSGLPSQTSGAGSAYATLPQLPLSPRLSSKLSGYHTPVEAIEPVIPHHELGGKTPSADYSVDRQMDAVGERNLDVSSVEEISRSKDSNVTPDDDVSGMRSPSAFFKHPTHLVTPSEILMGVSSAEASITTEDRRDRDANIQDVNNDPRDTEVEVKEISEARSTQNGEINDHDETENCTSENREKVFCSQVSNLSTEMARDCYPSTEGTFIPGESKAYGQPIKAGDESGVDSRGGPAKLLKGKKQKAKNSQGPGLSSTSSNVANLADSFNEQSQSLSHPMTDLLPQLLAMQETMNQVMASQKEMQRQLSNAATGPIGKESKRLEVALGRMIEKSSKSNADALWARIQEETVKNEKALRDHAQQIVNATTNFMSKELNAMFEKTIKKELAAIGPALARSVVPVIEKTVSSAITESFQRGIGDKAVNQLDKSVNIKLEATVARQIQAQFQTSGKQALQEGLRSSVESSVIPSFEKACKAMFDQIDSAFQKGIAEHTNAAQQRFDSGHSQLAHTLKESITSASSVAQALSRELAETQRNLLALAAAGANSGGSNSLVTQLSGGPLGALLEKVEAPMDPTTELSRLISERKYEESFTSALQRSDVSIVSWLCSQVDLRGLLAMNPLPLSQGVLLSLLQQLACDISKDTSRKLAWMTDVVAAINPSDQMIAVHARPIFEQVYQILHHHRNAPGSDVSAIRLIMHVINSMLMGCK
B3: DCP5-CYFP (protein, UniProt Q9C658 1-611)
chain: B1 chain
B4: ARGONAUTE 1 (AGO1), yeast two-hybrid fusion (protein, UniProt O04379 1-1048)
chain: MVRKRRTDAPSEGGEGSGSREAGPVSGGGRGSQRGGFQQGGGQHQGGRGYTPQPQQGGRGGRGYGQPPQQQQQYGGPQEYQGRGRGGPPHQGGRGGYGGGRGGGPSSGPPQRQSVPELHQATSPTYQAVSSQPTLSEVSPTQVPEPTVLAQQFEQLSVEQGAPSQAIQPIPSSSKAFKFPMRPGKGQSGKRCIVKANHFFAELPDKDLHHYDVTITPEVTSRGVNRAVMKQLVDNYRDSHLGSRLPAYDGRKSLYTAGPLPFNSKEFRINLLDEEVGAGGQRREREFKVVIKLVARADLHHLGMFLEGKQSDAPQEALQVLDIVLRELPTSRYIPVGRSFYSPDIGKKQSLGDGLESWRGFYQSIRPTQMGLSLNIDMSSTAFIEANPVIQFVCDLLNRDISSRPLSDADRVKIKKALRGVKVEVTHRGNMRRKYRISGLTAVATRELTFPVDERNTQKSVVEYFHETYGFRIQHTQLPCLQVGNSNRPNYLPMEVCKIVEGQRYSKRLNERQITALLKVTCQRPIDREKDILQTVQLNDYAKDNYAQEFGIKISTSLASVEARILPPPWLKYHESGREGTCLPQVGQWNMMNKKMINGGTVNNWICINFSRQVQDNLARTFCQELAQMCYVSGMAFNPEPVLPPVSARPEQVEKVLKTRYHDATSKLSQGKEIDLLIVILPDNNGSLYGDLKRICETELGIVSQCCLTKHVFKMSKQYMANVALKINVKVGGRNTVLVDALSRRIPLVSDRPTIIFGADVTHPHPGEDSSPSIAAVVASQDWPEITKYAGLVCAQAHRQELIQDLFKEWKDPQKGVVTGGMIKELLIAFRRSTGHKPLRIIFYRDGVSEGQFYQVLLYELDAIRKACASLEAGYQPPVTFVVVQKRHHTRLFAQNHNDRHSVDRSGNILPGTVVDSKICHPTEFDFYLCSHAGIQGTSRPAHYHVLWDENNFTADGLQSLTNNLCYTYARCTRSVSIVPPAYYAHLAAFRARFYMEPETSDSGSMASGSMARGGGMAGRSTRGPNVNAAVRPLPALKENVKRVMFYC

Key:
[1] = target: T1, EVOLUTIONARILY CONSERVED C-TERMINAL REGION 8 (ECT8), yeast two-hybrid fusion (Arabidopsis thaliana); test: two-hybrid; GAL4 AD (pGADT7) and BD (pGBKT7) fusions cotransfected into yeast AH109; interactions evaluated on quadruple dropout medium YSD-Leu-Trp-Ade-His, 28 °C, 2 d
[2] = target: T2, ECT8-NYFP (Arabidopsis thaliana); test: split reporter; BiFC with split YFP: ECT8-NYFP and DCP5-CYFP coinfiltrated (A. tumefaciens GV3101, p19) into 4-wk-old N. benthamiana leaves; confocal imaging after 24 to 48 h

Binder | binding [1] | binding [2]
B1 | binds | 
B2 | binds | 
B3 |  | binds
B4 | no binding | 
